In the supplement of paper PMC10849652:
The other results are listed elsewhere or left out.

By UniProt entry, the sequences of proteins in these tests, tags left out. Where a name states a change or a piece, a line headed by the entry shows the natural chain unless it says otherwise.
UniProt O60239: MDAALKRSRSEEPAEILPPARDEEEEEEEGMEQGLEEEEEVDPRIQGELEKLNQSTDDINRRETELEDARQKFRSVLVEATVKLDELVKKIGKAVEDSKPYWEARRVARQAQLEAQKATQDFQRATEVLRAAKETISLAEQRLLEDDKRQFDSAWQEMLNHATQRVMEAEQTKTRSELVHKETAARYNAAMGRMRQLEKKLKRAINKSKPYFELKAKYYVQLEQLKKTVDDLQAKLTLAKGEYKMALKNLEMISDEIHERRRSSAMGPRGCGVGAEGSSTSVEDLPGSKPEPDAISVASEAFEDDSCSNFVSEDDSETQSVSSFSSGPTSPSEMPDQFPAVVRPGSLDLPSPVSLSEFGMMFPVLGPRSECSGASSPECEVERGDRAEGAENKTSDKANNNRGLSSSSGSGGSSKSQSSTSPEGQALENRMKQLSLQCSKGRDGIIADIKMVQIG
UniProt Q9H9B4: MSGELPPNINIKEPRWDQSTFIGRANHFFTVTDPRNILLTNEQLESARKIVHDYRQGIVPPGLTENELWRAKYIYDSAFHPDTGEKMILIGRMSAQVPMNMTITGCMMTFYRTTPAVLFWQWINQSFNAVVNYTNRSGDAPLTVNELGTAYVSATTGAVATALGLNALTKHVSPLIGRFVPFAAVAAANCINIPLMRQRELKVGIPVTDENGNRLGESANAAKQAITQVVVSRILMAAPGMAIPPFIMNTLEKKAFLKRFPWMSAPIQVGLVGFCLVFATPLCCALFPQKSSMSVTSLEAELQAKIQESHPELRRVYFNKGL
UniProt Q13530: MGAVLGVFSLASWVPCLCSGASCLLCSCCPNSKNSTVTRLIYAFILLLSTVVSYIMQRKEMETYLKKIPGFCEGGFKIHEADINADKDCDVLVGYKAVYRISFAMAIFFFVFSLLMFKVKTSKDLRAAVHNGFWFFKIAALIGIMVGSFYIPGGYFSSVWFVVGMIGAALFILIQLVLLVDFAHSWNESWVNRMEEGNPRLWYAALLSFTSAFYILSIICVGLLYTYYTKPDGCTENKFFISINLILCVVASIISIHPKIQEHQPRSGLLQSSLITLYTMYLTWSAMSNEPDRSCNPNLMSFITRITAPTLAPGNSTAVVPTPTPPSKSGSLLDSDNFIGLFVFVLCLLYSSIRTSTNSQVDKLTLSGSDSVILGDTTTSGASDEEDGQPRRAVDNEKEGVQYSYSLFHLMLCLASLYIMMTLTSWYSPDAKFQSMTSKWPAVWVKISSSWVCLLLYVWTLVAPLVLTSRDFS
UniProt Q96ES7: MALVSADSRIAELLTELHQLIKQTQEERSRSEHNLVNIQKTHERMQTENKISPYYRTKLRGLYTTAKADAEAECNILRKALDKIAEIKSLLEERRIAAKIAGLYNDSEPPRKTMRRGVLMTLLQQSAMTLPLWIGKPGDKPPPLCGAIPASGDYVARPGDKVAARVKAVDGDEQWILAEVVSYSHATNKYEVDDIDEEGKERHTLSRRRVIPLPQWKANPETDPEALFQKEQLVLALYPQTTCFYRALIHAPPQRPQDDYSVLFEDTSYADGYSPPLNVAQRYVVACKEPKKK
UniProt Q8IX90, whole entry, looked up: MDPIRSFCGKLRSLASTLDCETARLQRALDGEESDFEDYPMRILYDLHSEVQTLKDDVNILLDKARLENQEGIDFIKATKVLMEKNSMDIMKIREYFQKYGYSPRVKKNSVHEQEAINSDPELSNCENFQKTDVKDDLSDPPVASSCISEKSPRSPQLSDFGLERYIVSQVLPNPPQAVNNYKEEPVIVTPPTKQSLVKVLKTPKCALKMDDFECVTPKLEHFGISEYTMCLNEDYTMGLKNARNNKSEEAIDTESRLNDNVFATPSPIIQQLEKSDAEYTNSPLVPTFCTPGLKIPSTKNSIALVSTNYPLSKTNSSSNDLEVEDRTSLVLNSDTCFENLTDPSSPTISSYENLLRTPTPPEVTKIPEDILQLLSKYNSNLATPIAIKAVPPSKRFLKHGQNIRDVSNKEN
UniProt Q15459: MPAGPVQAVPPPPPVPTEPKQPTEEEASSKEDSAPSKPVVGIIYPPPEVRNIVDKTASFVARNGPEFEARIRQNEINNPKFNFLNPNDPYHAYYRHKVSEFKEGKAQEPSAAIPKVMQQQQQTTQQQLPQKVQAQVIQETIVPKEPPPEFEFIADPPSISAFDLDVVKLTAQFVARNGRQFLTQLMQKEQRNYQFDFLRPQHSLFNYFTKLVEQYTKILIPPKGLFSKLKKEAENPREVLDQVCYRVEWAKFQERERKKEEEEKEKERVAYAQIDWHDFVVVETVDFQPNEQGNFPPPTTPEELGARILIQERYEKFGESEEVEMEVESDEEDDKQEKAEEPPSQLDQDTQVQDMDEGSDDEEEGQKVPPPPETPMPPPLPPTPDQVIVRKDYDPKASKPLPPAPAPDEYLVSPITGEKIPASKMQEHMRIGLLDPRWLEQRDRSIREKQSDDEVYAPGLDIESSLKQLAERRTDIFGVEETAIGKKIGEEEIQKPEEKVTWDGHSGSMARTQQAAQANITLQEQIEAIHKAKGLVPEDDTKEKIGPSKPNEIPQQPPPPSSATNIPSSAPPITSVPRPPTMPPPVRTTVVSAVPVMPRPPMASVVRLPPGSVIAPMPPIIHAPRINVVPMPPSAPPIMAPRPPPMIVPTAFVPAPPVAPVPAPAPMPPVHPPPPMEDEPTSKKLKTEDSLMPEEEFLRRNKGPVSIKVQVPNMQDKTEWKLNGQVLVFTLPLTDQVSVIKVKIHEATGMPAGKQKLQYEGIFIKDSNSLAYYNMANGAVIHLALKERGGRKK
UniProt P43007: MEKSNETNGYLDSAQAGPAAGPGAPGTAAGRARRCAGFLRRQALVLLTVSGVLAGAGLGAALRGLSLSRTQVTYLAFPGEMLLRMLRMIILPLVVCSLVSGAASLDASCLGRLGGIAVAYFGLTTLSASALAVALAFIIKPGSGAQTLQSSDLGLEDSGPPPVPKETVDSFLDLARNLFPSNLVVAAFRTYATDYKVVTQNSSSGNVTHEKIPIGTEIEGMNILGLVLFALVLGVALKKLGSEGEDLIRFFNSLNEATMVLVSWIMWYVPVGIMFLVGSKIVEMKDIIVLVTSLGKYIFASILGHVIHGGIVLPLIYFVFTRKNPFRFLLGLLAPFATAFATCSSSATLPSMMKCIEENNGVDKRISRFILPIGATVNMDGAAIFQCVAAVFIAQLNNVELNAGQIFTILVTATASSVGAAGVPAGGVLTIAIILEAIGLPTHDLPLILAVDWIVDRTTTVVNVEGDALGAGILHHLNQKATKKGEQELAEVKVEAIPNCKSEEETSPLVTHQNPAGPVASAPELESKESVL
UniProt Q149N8: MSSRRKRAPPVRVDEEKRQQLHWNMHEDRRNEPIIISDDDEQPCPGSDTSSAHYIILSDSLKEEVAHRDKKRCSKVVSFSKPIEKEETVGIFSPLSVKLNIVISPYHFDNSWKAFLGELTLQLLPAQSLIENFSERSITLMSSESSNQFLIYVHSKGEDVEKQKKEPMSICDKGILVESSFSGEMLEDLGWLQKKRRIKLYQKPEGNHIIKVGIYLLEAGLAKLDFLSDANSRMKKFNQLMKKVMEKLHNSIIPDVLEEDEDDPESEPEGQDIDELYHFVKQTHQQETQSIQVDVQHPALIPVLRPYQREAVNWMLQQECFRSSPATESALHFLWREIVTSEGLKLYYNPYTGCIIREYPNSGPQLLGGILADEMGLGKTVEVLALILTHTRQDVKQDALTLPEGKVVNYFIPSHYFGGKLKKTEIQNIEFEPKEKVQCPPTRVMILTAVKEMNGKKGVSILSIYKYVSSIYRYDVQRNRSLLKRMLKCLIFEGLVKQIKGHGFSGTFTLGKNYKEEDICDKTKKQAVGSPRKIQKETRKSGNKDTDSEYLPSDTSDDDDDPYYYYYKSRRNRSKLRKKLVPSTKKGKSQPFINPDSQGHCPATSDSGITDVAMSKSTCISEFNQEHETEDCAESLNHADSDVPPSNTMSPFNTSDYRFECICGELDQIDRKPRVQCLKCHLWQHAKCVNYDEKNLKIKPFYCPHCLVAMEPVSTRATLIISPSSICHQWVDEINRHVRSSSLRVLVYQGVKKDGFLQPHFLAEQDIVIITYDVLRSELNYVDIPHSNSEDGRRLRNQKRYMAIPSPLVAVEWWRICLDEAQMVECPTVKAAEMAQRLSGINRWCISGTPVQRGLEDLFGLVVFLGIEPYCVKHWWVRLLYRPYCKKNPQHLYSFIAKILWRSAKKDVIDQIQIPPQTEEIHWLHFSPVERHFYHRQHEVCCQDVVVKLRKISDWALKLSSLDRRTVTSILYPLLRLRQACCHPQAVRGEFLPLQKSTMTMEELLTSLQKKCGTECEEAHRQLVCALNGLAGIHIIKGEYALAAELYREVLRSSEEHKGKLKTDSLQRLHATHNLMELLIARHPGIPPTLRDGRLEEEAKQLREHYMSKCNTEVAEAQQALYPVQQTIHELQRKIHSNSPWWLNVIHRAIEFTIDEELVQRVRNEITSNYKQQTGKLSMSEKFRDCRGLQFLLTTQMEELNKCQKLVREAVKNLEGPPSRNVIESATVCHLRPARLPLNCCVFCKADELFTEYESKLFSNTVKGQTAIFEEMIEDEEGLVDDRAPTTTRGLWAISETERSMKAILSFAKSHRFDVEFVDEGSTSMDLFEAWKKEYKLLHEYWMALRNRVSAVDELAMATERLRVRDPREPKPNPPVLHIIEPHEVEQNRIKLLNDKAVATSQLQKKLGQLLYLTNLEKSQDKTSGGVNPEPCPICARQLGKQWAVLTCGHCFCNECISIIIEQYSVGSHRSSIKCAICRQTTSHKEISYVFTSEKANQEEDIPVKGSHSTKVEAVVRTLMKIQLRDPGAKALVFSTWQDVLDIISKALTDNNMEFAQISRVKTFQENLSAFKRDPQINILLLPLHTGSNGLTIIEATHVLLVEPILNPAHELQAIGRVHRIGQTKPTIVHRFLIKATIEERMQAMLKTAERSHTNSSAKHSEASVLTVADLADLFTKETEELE
UniProt Q8WVK7: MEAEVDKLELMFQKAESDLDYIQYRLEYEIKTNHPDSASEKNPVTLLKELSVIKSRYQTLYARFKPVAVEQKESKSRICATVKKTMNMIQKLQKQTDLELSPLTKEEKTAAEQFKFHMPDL
UniProt Q9Y3L3: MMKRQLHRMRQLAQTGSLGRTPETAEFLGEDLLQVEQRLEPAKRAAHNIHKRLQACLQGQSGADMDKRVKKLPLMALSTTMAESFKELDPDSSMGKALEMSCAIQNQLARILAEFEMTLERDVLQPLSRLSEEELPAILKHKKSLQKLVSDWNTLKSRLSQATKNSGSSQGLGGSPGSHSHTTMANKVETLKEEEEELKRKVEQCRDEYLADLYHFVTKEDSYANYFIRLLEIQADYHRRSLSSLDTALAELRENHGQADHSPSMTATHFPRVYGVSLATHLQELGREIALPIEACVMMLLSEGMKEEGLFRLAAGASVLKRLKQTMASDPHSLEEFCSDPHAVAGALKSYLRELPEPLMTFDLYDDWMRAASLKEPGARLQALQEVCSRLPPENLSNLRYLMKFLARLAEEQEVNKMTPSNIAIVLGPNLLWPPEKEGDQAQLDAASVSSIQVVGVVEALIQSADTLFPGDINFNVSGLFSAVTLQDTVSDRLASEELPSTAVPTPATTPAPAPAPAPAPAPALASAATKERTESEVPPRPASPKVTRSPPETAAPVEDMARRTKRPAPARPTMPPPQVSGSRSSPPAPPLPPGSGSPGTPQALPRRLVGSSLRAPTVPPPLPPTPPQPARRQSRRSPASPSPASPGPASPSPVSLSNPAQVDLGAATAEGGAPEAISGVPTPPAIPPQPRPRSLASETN
UniProt P63208, whole entry, looked up: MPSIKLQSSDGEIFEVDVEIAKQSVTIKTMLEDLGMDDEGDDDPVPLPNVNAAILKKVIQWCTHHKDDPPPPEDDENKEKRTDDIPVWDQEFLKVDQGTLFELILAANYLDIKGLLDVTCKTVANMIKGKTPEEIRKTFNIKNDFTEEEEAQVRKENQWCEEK
UniProt P29353: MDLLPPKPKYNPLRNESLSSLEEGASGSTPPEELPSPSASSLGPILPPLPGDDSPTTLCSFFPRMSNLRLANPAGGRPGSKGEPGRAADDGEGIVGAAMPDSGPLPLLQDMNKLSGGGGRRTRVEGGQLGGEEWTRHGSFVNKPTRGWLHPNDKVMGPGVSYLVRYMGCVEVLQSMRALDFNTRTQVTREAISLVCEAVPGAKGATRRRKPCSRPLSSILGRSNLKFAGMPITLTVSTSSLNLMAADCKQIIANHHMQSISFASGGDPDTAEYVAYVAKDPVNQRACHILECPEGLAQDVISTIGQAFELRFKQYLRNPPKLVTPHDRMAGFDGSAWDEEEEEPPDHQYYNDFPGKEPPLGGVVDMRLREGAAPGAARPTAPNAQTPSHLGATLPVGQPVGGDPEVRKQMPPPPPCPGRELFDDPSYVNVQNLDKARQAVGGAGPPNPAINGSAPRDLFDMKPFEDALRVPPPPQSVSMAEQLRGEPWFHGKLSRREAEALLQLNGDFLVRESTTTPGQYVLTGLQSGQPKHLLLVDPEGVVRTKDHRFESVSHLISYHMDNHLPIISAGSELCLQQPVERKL

Tests used:
Assay in all cases: log2 fold change, soluble protein after heating vs DMSO (PISA); higher = thermal stabilisation; K562 lysate, 10 uM; active = over 0.2 and 3.5 SD of the protein, either way, in both replicates (recomputed)
ibrutinib = compound: C=CC(=O)N1CCC[C@@H](n2nc(-c3ccc(Oc4ccccc4)cc3)c3c(N)ncnc32)C1 [ibrutinib]
How it was run: (§1)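 Log-two fold change in thermal stability relative to solvent controls is reported from duplicates. For each sample, crude K562 extract from dounce-homogenised pellets in PBS pH 7.4 with 1 mM MgCl2, at 1 mg/mL protein, was treated with 10 μM compound for 30 min. Aliquots heated for 3 min across 48°C-58°C were pooled, brought to 0.5% NP-40 at 4°C and cleared at 21,000xg for 90 min. The supernatant was quantified by TMTpro 16plex LC-MS/MS with channel sums equalised.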

[1] = compound: CC(=O)c1cnc2ccc(-c3cc(Cl)c(O)c(Cl)c3)nc2c1N[C@H]1CC[C@H](CN(C)C)CC1
How it was run: as §1

ralimetinib = compound: CC(C)(C)Cn1c(N)nc2ccc(-c3[nH]c(C(C)(C)C)nc3-c3ccc(F)cc3)nc21 [ralimetinib]
How it was run: as §1

[2] = compound: CC(C)(O)CC(=O)NCCn1ccc2ncnc(Nc3ccc(Oc4cccc(C(F)(F)F)c4)c(Cl)c3)c21
How it was run: as §1

[3] = compound: CC(C)C1=C2N=C(C=C(N2N=C1)NCC3=CC=CC=C3)NCCCCCCN
How it was run: as §1

[4] = compound: CC1=C(C(CC(=O)N1)C2=CC=C(C=C2)C(F)(F)F)C(=O)NC3=C(C=C4C(=C3)C=NN4)F
How it was run: as §1

[5] = compound: CC1=C(C2=C(C=C1)C(=O)C3=CC=CC=C3N2CCCN)C
How it was run: as §1

[6] = compound: CC1=C(C=C(C=C1)NC(=O)C2=CC(=CC=C2)C(C)(C)C#N)NC3=CC4=C(C=C3)N=CN(C4=O)C
How it was run: as §1

[7] = compound: CC1=C(C=C(C=C1)NC(=O)C2=CC(=CC=C2)N(C)C)NC(=O)C3=CC=C(C=C3)O
How it was run: as §1

[8] = compound: CC1=CC=C(C=C1)SC2=C3C=C(SC3=CN=C2)C(=O)N
How it was run: as §1

Measured: log2 fold change

SFXN4 (UniProt Q6P4A7)
inactive: ibrutinib 0.046 | [1] 0.027 | ralimetinib 0.044 | [2] -0.031 | [3] -0.003 | [4] -0.027 | [5] -0.06 | [6] 0.025 | [7] 0.021 | [8] 0.075

SH3BP5 (UniProt O60239)
inactive: ibrutinib -0.034 | [1] -0.056 | ralimetinib -0.009 | [2] -0.094 | [3] -0.045 | [4] -0.038 | [5] 0.007 | [6] -0.004 | [7] -0.019 | [8] -0.072

SFXN1 (UniProt Q9H9B4)
inactive: ibrutinib -0.026 | [1] -0.012 | ralimetinib 0.005 | [2] -0.074 | [3] -0.063 | [4] 0.019 | [5] 0.021 | [6] 0.033 | [7] 0.011 | [8] 0.025

SERINC3 (UniProt Q13530)
inactive: ibrutinib 0.06 | [1] -0.082 | ralimetinib 0.01 | [2] -0.003 | [3] -0.016 | [4] -0.012 | [5] -0.055 | [6] 0.049 | [7] -0.042 | [8] -0.011

SIDT2 isoform 2 (UniProt Q8NBJ9)
inactive: ibrutinib 0.025 | [1] 0.058 | ralimetinib 0.045 | [2] -0.019 | [3] -0.005 | [4] 0.008 | [5] 0.074 | [6] -0.014 | [7] -0.027 | [8] 0.011

SF1 isoform 5 (UniProt Q15637)
inactive: ibrutinib 0.015 | [1] 0.003 | ralimetinib -0.014 | [2] 0 | [3] -0.015 | [4] -0.003 | [5] 0.016 | [6] -0.014 | [7] -0.029 | [8] -0.029

SFXN2 (UniProt Q96NB2)
inactive: ibrutinib -0.012 | [1] 0.021 | ralimetinib 0.001 | [2] -0.018 | [3] -0.07 | [4] 0.099 | [5] -0.042 | [6] 0.018 | [7] 0.05 | [8] 0.029

SGF29 (UniProt Q96ES7)
inactive: ibrutinib 0 | [1] -0.018 | ralimetinib 0.004 | [2] -0.004 | [3] -0.008 | [4] -0.007 | [5] 0.033 | [6] 0.015 | [7] 0.041 | [8] -0.026

SERPINB6, A0A087X1N8
inactive: ibrutinib 0.022 | [1] -0.014 | ralimetinib -0.02 | [2] -0.011 | [3] -0.026 | [4] 0 | [5] -0.01 | [6] -0.01 | [7] 0.007 | [8] -0.021

SKA3 (UniProt Q8IX90)
inactive: ibrutinib 0.001 | [1] -0.032 | ralimetinib -0.021 | [2] -0.038 | [3] 0.007 | [4] 0.027 | [5] -0.011 | [6] 0.027 | [7] 0.025 | [8] -0.046

SIPA1 (UniProt Q96FS4)
inactive: ibrutinib 0.006 | [1] -0.015 | ralimetinib -0.014 | [2] -0.019 | [3] 0.046 | [4] -0.003 | [5] -0.047 | [6] -0.011 | [7] -0.055 | [8] 0.015

SF3B1 (UniProt O75533)
inactive: ibrutinib -0.027 | [1] -0.002 | ralimetinib 0.018 | [2] -0.017 | [3] 0.011 | [4] -0.022 | [5] -0.006 | [6] 0.019 | [7] 0 | [8] 0.016

SET isoform 2 (UniProt Q01105)
inactive: ibrutinib -0.055 | [1] -0.001 | ralimetinib -0.027 | [2] -0.037 | [3] 0.012 | [4] -0.049 | [5] 0.014 | [6] 0.026 | [7] -0.023 | [8] -0.022

SHMT1 (UniProt P34896)
inactive: ibrutinib 0.018 | [1] 0.001 | ralimetinib 0.005 | [2] -0.013 | [3] -0.024 | [4] -0.005 | [5] -0.001 | [6] 0.037 | [7] -0.02 | [8] -0.027

SH3BGR (UniProt P55822)
inactive: ibrutinib -0.004 | [1] -0.023 | ralimetinib -0.023 | [2] 0.025 | [3] -0.062 | [4] 0 | [5] 0.079 | [6] 0.047 | [7] 0.021 | [8] -0.014

SF3A1 (UniProt Q15459)
inactive: ibrutinib 0.006 | [1] -0.006 | ralimetinib -0.015 | [2] -0.019 | [3] 0.015 | [4] 0.012 | [5] 0.005 | [6] 0.01 | [7] -0.011 | [8] -0.001

SIRT1 (UniProt Q96EB6)
inactive: ibrutinib 0.009 | [1] 0.009 | ralimetinib 0.007 | [2] -0.011 | [3] 0.011 | [4] -0.018 | [5] 0.003 | [6] -0.011 | [7] -0.006 | [8] 0.013

SERPINA7 (UniProt P05543)
inactive: ibrutinib 0.045

SLC1A4 (UniProt P43007)
inactive: ibrutinib -0.036 | [1] -0.005 | ralimetinib -0.041 | [2] -0.064 | [3] -0.02 | [4] -0.022 | [5] -0.01 | [6] -0.016 | [7] 0.023 | [8] -0.007

SIL1 (UniProt Q9H173)
inactive: ibrutinib 0.005 | [1] -0.015 | ralimetinib 0.063 | [2] -0.104 | [3] -0.012 | [4] 0.046 | [5] -0.019 | [6] -0.027 | [7] -0.034 | [8] -0.011

SHPRH (UniProt Q149N8)
inactive: ibrutinib 0.053 | [1] 0.09 | ralimetinib 0 | [2] -0.147 | [3] 0.097 | [4] -0.002 | [5] 0.032 | [6] -0.034 | [7] -0.014 | [8] 0.027

SERGEF (UniProt Q9UGK8)
inactive: ibrutinib -0.009 | [1] 0.016 | ralimetinib -0.154 | [2] 0.026 | [3] 0.01 | [4] 0.005 | [5] 0.002 | [6] -0.019 | [7] 0.058 | [8] -0.005

SKA2 (UniProt Q8WVK7)
inactive: ibrutinib 0.037 | [1] 0.004 | ralimetinib 0.016 | [2] -0.003 | [3] 0.014 | [4] -0.004 | [5] 0.032 | [6] -0.099 | [7] -0.011 | [8] -0.03

SFPQ (UniProt P23246)
inactive: ibrutinib 0.007 | [1] -0.006 | ralimetinib -0.005 | [2] 0.007 | [3] -0.008 | [4] -0.008 | [5] 0.006 | [6] -0.008 | [7] 0.005 | [8] 0.007

SH3BP1 (UniProt Q9Y3L3)
inactive: ibrutinib -0.012 | [1] 0.025 | ralimetinib -0.051 | [2] 0.01 | [3] -0.013 | [4] -0.02 | [5] -0.031 | [6] 0.081 | [7] -0.031 | [8] -0.02

SLC12A2 (UniProt P55011)
inactive: ibrutinib 0.009 | [1] 0.024 | ralimetinib 0.029 | [2] -0.09 | [3] -0.015 | [4] 0.029 | [5] 0.031 | [6] 0.001 | [7] 0.012 | [8] -0.005

SHMT2 (UniProt G3V2Y4)
inactive: ibrutinib 0.012

Reprinted from the entries so far (2 entries):
SF3A1 (UniProt Q15459)
inactive: ibrutinib 0.006 | [1] -0.006 | ralimetinib -0.015 | [2] -0.019 | [3] 0.015 | [4] 0.012 | [5] 0.005 | [6] 0.01 | [7] -0.011 | [8] -0.001

SIRT1 (UniProt Q96EB6)
inactive: ibrutinib 0.009 | [1] 0.009 | ralimetinib 0.007 | [2] -0.011 | [3] 0.011 | [4] -0.018 | [5] 0.003 | [6] -0.011 | [7] -0.006 | [8] 0.013

Remaining list, next part

SHKBP1 (UniProt Q8TBC3)
inactive: ibrutinib 0.064 | [1] -0.02 | ralimetinib 0.063 | [2] 0.006 | [3] 0.067 | [4] -0.005 | [5] -0.051 | [6] 0.038 | [7] 0.052 | [8] 0.004

SKP1 (UniProt P63208)
inactive: ibrutinib 0.063 | [1] -0.005 | ralimetinib -0.019 | [2] -0.002 | [3] 0.019 | [4] -0.033 | [5] 0.001 | [6] 0.02 | [7] -0.007 | [8] -0.011

SLC12A6 (UniProt Q9UHW9)
inactive: ibrutinib 0.01 | [1] -0.021 | ralimetinib -0.037 | [2] -0.014 | [3] 0.011 | [4] 0.001 | [5] -0.012 | [6] 0.012 | [7] 0.024 | [8] -0.021

SHC1 isoform 6 (UniProt P29353)
inactive: ibrutinib 0.053 | [1] -0.007 | ralimetinib -0.02 | [2] -0.041 | [3] -0.007 | [4] -0.016 | [5] -0.006 | [6] -0.004 | [7] 0.002 | [8] -0.008
